The list shows a part of the results. These are further read-outs of the screen, such as a control signal, another cell line or another target. No call is given for them. The list favours compounds with an active or inconclusive main result. Potencies come from curve fits of mixed quality, noted in brackets. Where a SMILES comes first, the peptide text is derived from it. The star is where a group is joined. Boc = CC(C)(C)OC(=O)*
Assay: qHTS Assay for Lipid Storage Modulators in Drosophila S3 Cells;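 for cell number change: cells counted by Cell Tracker Red CMTPX staining in the red channel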
Settings: BODIPY lipid droplet fluorescence, 18-24 h; for cell number change: measured here: cell count max response, cells fed with added oleic acid
Summary of the method: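 Laser-scanning cytometry quantifies lipid droplet accumulation (500–530 nm total intensity; droplet/cell object ratio) in oleic acid-fed (400 uM added) Drosophila S3 cells treated with a concentration series. 20 uM Triacsin C defined 100% inhibition.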

[1] = measured here: cell number channel AC50, cells fed with added oleic acid
[2] = measured here: lipid fluorescence (Fed channel) AC50, cells fed with added oleic acid

`C=CCOc1ccc(NC(=O)C(=O)NCCCn2ccnc2)cc1` gave a cell number change of -23.7%.
For `CC(=O)Nc1ccc(S(=O)(=O)Nc2cc(C)cn(Cc3ccccc3)c2=O)cc1`, the cell number change was 55.2%, the AC50 [1] was 20600 nM [rising, single point] and the AC50 [2] was 651 nM [falling, partial curve, poor fit].
For `COC(=O)c1sccc1NC(=O)C1C2C=CC(O2)C1C(=O)O` (configuration not stated), the cell number change was -2.29% and the AC50 [2] was 259 nM [falling, full curve, poor fit].
With `CC(=O)Nc1cccc(Oc2ccc([N+](=O)[O-])cc2Cl)c1` the cell number change was 37.9% and the AC50 [1] was 32600 nM [rising, single point].
For `COc1cc(C2C(C(=O)c3ccc(C)o3)=C(O)C(=O)N2c2cc(C)on2)cc(OC)c1OC` (configuration not stated), the cell number change was -22.2% and the AC50 [2] was 5.17 nM [rising, full curve, poor fit].
Work on `N#Cc1ccc(C(=O)CN2CCN(c3ccccc3)CC2)cc1` yielded a cell number change of -3.85%.
`CCc1cccc(C)c1NC(=O)Cc1ccsc1` showed a cell number change of -4.17%.
For `Cc1ccc(C)c(SCC(=O)OC/C(O)=C(\C#N)c2nc3ccccc3[nH]2)c1`, the cell number change was -29.6% and the AC50 [2] was 29100 nM [falling, single point].
In the case of `CC(=O)Nc1c(O)n(C)c2ccccc12`, the cell number change is reported as -8.01%, the AC50 [1] is reported as 651 nM [falling, partial curve, poor fit] and the AC50 [2] is reported as 65.1 nM [falling, full curve, poor fit].
With `Cc1cc2nc(N3C(=O)CNC3=S)sc2cc1C` the cell number change was -30.1% and the AC50 [2] was 20600 nM [falling, partial curve].
For `COc1cc2cc(CN(Cc3cccnc3)C(=O)NCc3ccccc3)c(=O)[nH]c2cc1OC`, the cell number change was 22.9% and the AC50 [2] was 146 nM [rising, full curve, poor fit].
With `COCCCNC(=O)c1ccc2c(c1)OCO2` the cell number change was 87.9%, the AC50 [1] was 29100 nM [rising, partial curve, poor fit] and the AC50 [2] was 29100 nM [rising, partial curve].
In the case of `O=C(N/N=C1\CC(c2ccccc2)Oc2ccccc21)c1cccnc1` (configuration not stated), the cell number change is reported as -8.27% and the AC50 [2] is reported as 206 nM [rising, full curve, poor fit].
Work on `CCOc1ncccc1C(=O)NCc1ccccc1` yielded a cell number change of 2.67%.
For `O=C(Nc1cccc(C(F)(F)F)c1)NC1CCN(S(=O)(=O)c2ccc(F)cc2)CC1`, the AC50 [1] was 2060 nM [rising, partial curve].
With `CCc1ccc(C2=NN(CCC(=O)NC3CCCCCC3)C(=O)CC2)cc1` the cell number change was -28.1% and the AC50 [2] was 92 nM [rising, full curve].
In the case of `O=C(CCC(=O)N1CCCC1)Nc1nnc(C2CCCCC2)s1`, the cell number change is reported as 9.71% and the AC50 [2] is reported as 3660 nM [rising, single point].
For `CCC(=O)Nc1nnc(S(=O)(=O)N(CC)c2cc(C)cc(C)c2)s1`, the cell number change was 23.4% and the AC50 [2] was 29100 nM [rising, single point].
In the case of `Cn1c(NC(=O)c2ccco2)c(-c2ccccc2)c(=O)c2ccccc21`, the AC50 [1] is reported as 820 nM [falling, partial curve].
In the case of `CS(=O)c1ccccc1COC(=O)Nc1ccccc1` (configuration not stated), the cell number change is reported as 56.1%, the AC50 [1] is reported as 29100 nM [rising, partial curve, poor fit] and the AC50 [2] is reported as 411 nM [rising, partial curve].
For `COc1ccc(OCCOC(=O)c2ccc(-n3cnnn3)cc2)cc1`, the cell number change was 2.47% and the AC50 [2] was 2310 nM [rising, single point].
For `O=C(Nc1cccc(S(=O)(=O)N2CCCCC2)c1)C1CC(=O)N(c2ccc3c(c2)OCCO3)C1` (configuration not stated), the cell number change was -22.6%.
With `COC(=O)C(Cc1ccccc1)NC(=O)CNC(=O)c1sc2ccccc2c1Cl` (configuration not stated) the AC50 [2] was 1160 nM [falling, single point].
In the case of `CCN(CC)C(=S)NC(=O)C12CC3CC(CC(C3)C1)C2`, the cell number change is reported as -21.8%, the AC50 [1] is reported as 116 nM [falling, full curve, poor fit] and the AC50 [2] is reported as 103 nM [falling, full curve, poor fit].
`Cc1ccccc1-c1noc(CCC(=O)NCC2CCCO2)n1` (configuration not stated) showed a cell number change of 22.7%.
With `Cc1[nH]c2ccc(C(=O)N3CCN(Cc4ccccc4)CC3)cc2c1C` the cell number change was 36.9% and the AC50 [1] was 20600 nM [rising, single point].
In the case of `O=C1C(C=NCCCN2CCCC2=O)=C(O)c2ccccc21`, the cell number change is reported as -7.49% and the AC50 [1] is reported as 6510 nM [falling, single point].
In the case of `CCOc1ccccc1NS(=O)(=O)c1cccc2nsnc12`, the AC50 [1] is reported as 580 nM [falling, single point] and the AC50 [2] is reported as 29100 nM [falling, single point].
In the case of `CC(=O)Nc1sc2c(c1C(c1ccccc1)N1CCOCC1)CCCC2` (configuration not stated), the AC50 [2] is reported as 6510 nM [rising, single point].
For `NC(=O)C(c1ncc(C(F)(F)F)cc1Cl)c1c(Cl)cccc1Cl` (configuration not stated), the cell number change was -3.16% and the AC50 [2] was 231 nM [falling, full curve, poor fit].
In the case of `Cc1ccccc1C1NC(=O)Cc2ccccc21` (configuration not stated), the cell number change is reported as 86.1%, the AC50 [1] is reported as 20600 nM [rising, partial curve] and the AC50 [2] is reported as 184 nM [rising, full curve].
In the case of `O=C(CCl)NCCNC(=O)c1cc(OCC(F)(F)F)ccc1OCC(F)(F)F`, the cell number change is reported as 24.1% and the AC50 [1] is reported as 4.61 nM [rising, full curve, poor fit].
In the case of `O=C1CC(c2cccnc2)c2cc3c(cc2N1)OCCO3` (configuration not stated), the cell number change is reported as 9.06%, the AC50 [1] is reported as 116 nM [rising, full curve, poor fit] and the AC50 [2] is reported as 130 nM [rising, full curve, poor fit].
In the case of `Cc1ccc(-c2nnn(CC(=O)N3CCCCC3)n2)o1`, the cell number change is reported as -81% and the AC50 [1] is reported as 3260 nM [falling, partial curve].
With `O=C(O)CN1C(=O)c2cccc3c(Br)ccc1c23` the AC50 [2] was 5800 nM [rising, full curve].
Compound `CN1CCC(=O)N([C@H](CSc2ccccc2)Cc2ccccc2)CC1` has a cell number change of 21%.
In the case of `COc1cccc(C2CC(c3ccccc3)=NN2S(=O)(=O)c2ccc(C)cc2)c1OC` (configuration not stated), the cell number change is reported as 20.6% and the AC50 [1] is reported as 3260 nM [rising, full curve, poor fit].
With `CCOC(=O)C1=C(C)n2c(s/c(=C3\C(=O)Nc4ccccc43)c2=O)=NC1c1ccc(OC)cc1` (configuration not stated) the AC50 [2] was 2590 nM [falling, single point].
In the case of `CCOC(=O)C1CCCN(C(=O)C(=O)c2cn(CC(=O)N3CCOCC3)c3ccccc23)C1` (configuration not stated), the cell number change is reported as -12.2% and the AC50 [2] is reported as 8200 nM [falling, partial curve].
With `COc1cc(OC)cc(C(=O)N/N=C/c2ccc(OC)c(COc3ccc(F)cc3)c2)c1` the cell number change was -18% and the AC50 [2] was 29100 nM [falling, partial curve, poor fit].
In the case of `CCC(C)C(NC(=O)OC(C)(C)C)C(=O)NC(C)C(N)=O` (stereo not drawn) (Boc-Ile-Ala-NH2; configuration not given here), the cell number change is reported as 22.6% and the AC50 [2] is reported as 731 nM [rising, full curve, poor fit].
For `Cc1ccc(CNC(=O)c2ccc(N3CCC4(CC3)CC(c3ccccc3)=NO4)c(NC(=O)c3c(Cl)cccc3Cl)c2)cc1`, the cell number change was -23.4% and the AC50 [2] was 29100 nM [falling, single point].
With `CC(C)c1ccc(NC2CCCN(C(=O)CCN3CCCCO3)C2)cc1` (configuration not stated) the cell number change was 37.2%, the AC50 [1] was 206 nM [rising, full curve, poor fit] and the AC50 [2] was 92 nM [rising, full curve].
For `O=C(Nc1ccc(F)c(F)c1)c1cnc(-c2ccccc2)nc1-c1ccccc1`, the cell number change was -4.26% and the AC50 [2] was 6510 nM [rising, single point].
In the case of `N/C(=N\O)c1ccc(NC(=O)c2ccc(Br)o2)cc1`, the cell number change is reported as 14.1% and the AC50 [2] is reported as 18400 nM [falling, single point].
Compound `CN(Cc1ccc(C(F)(F)F)cc1)C(=O)c1ccc2ccccc2n1` has a cell number change of -3.17%.
With `COc1ccc(Br)c(-c2nnc(CS(=O)(=O)c3ccccc3)o2)c1` the cell number change was 10.3% and the AC50 [2] was 4.11 nM [rising, full curve, poor fit].
`CC1C(=O)CCN(C(C)C)C1C` (configuration not stated) gave a cell number change of -55.1%.
In the case of `CC/C(=N\NC(=O)c1ccc2c(c1)OCO2)C12CC3CC(CC(C3)C1)C2`, the AC50 [2] is reported as 651 nM [rising, single point].
In the case of `COc1ccc(C(=O)n2cnc3ccccc32)cc1[N+](=O)[O-]`, the cell number change is reported as -4.46% and the AC50 [2] is reported as 14600 nM [rising, partial curve].
In the case of `CCOC(=O)c1[nH]c(C)c(/C(O)=C2\C(=O)C(=O)N(CCCN(C)C)C2c2ccncc2)c1C` (configuration not stated), the cell number change is reported as -12.5% and the AC50 [1] is reported as 820 nM [falling, full curve, poor fit].
With `CC(=O)N1CCC(N(C(=O)Nc2ccc(C)c(C)c2)C2CCCC2)CC1` the AC50 [2] was 6510 nM [rising, single point].
In the case of `Cc1ccc(-c2cc(O)cc3sc(=O)oc23)cc1C`, the cell number change is reported as -41.9%.
In the case of `O=[N+]([O-])c1cc(S(=O)(=O)N2CCCC2)ccc1NN=C1CCCC1`, the cell number change is reported as 77.3%, the AC50 [1] is reported as 16400 nM [rising, partial curve] and the AC50 [2] is reported as 411 nM [rising, full curve].
With `COc1cc(NC(=O)COc2c(C)cc(C)cc2[N+](=O)[O-])c(OC)cc1Cl` the cell number change was 7.17% and the AC50 [2] was 291 nM [rising, partial curve].
For `CC1CCCCC12NC(=O)N(CC(=O)c1ccc[nH]1)C2=O` (configuration not stated), the cell number change was 13.7%.
`COc1cccc(NC(=O)C2CC(=O)N=C(N)S2)c1` (configuration not stated) showed a cell number change of 2.27%.
In the case of `CC(=O)c1ccc(NS(=O)(=O)c2cc3c(cc2C)N(C)CCO3)cc1`, the cell number change is reported as 23.9% and the AC50 [2] is reported as 10300 nM [rising, partial curve].
In the case of `CCOc1ccc2[nH]c(=O)c(C(c3nnnn3Cc3ccco3)N3CCC(C)CC3)cc2c1` (configuration not stated), the AC50 [2] is reported as 7310 nM [rising, partial curve].
In the case of `N#Cc1ccc(/C=C/C(=O)c2cccnc2)cc1`, the cell number change is reported as -57%.
For `Nc1nnc(CC(c2ccccc2)c2ccccc2)s1`, the cell number change was 50.7% and the AC50 [1] was 6510 nM [rising, partial curve].
For `CCCCN(CCCC)S(=O)(=O)c1ccc(NS(=O)(=O)c2ccc(NC(C)=O)cc2)cc1`, the cell number change was 45.1%, the AC50 [1] was 1640 nM [rising, partial curve] and the AC50 [2] was 18400 nM [rising, partial curve].

Source: PubChem BioAssay AID2685 (National Center for Advancing Translational Sciences (NCATS), 2010)
